From patent US20150299764A1, “IMMOBILISED CYCLIN-DEPENDENT KINASE 4 FUSION PROTEINS AND USES THEREOF” (UNIVERSITE LIBRE DE BRUXELLES, priority 2012, published 2015)
No constants are given. Whether binding was seen depends on the method and setting. For part of these data: In cells and extracts the contact can be indirect. Some binding calls cover weakened binding; strength is not graded here.

Amino acid sequences for entries named in this document (tags omitted). Residues count along the entry.
UniProt P11802, residues 2-303: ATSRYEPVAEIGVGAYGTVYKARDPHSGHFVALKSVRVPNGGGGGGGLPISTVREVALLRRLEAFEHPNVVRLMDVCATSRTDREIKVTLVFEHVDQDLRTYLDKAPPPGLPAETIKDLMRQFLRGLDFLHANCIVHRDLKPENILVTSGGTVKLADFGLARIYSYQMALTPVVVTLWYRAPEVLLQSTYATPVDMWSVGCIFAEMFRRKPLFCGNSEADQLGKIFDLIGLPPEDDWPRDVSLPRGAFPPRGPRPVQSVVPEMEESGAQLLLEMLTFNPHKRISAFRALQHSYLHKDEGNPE
UniProt P24385: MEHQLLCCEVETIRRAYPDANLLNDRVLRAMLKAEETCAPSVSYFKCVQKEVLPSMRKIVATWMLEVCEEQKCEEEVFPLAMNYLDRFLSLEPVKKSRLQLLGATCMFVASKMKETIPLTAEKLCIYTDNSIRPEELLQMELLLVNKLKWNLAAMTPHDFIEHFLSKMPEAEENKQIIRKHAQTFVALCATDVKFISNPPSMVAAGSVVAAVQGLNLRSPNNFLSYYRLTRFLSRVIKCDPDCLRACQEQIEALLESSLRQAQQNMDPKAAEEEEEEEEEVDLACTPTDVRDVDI
UniProt P02701, residues 25-152: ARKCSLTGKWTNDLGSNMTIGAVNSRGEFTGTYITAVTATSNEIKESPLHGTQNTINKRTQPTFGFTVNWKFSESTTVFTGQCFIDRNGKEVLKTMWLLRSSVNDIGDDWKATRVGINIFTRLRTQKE
UniProt P30281: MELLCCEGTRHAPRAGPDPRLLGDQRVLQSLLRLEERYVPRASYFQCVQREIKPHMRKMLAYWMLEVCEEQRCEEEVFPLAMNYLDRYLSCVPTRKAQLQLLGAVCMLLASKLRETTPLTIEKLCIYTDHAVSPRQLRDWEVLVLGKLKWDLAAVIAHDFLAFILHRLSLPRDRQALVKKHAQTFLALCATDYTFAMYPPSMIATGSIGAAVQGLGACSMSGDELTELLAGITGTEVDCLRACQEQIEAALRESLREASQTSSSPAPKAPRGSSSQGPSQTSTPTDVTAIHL

Key:
[1] = target: endogenous CDK4 of MCF7 cells (human) (UniProt P11802); experiment: co-immunoprecipitation from MCF7 lysate with anti-cyclin D1 (DCS-11), 2D gel immunoblot with anti-CDK4 H-22
[2] = target: internally Avi-tagged biotinylable luciferase/Avi/GFP fusion (ATGHis_Luc, from pWNATGHis_Luc) [luciferase: P08659]; experiment: blot of HEK293T lysates probed with labelled streptavidin (Odyssey)
[3] = target: internally Avi-tagged biotinylable luciferase/Avi fusion without GFP (ATHis_Luc, from pWNATHis_Luc) [luciferase: P08659]; experiment: as above
[4] = target: biotinylated Avi-tagged cyclin D1 (from pWFAvi_IBc_D1 or pWFAvi_IBp_D1); experiment: blot of HEK293T lysates probed with streptavidin-HRP
[5] = target: biotinylated Avi-tagged luciferase/EGFP fusion (pWFAvi_IBc_luc) [luciferase: P08659]; experiment: dilution series of HEK293T lysate on Pierce neutravidin-coated plates, bound luciferase activity
[6] = target: endogenous CDK4 of MCF7 cells (human) (UniProt P11802); experiment: co-immunoprecipitation from MCF7 lysate with anti-cyclin D3 (DCS-28), 2D gel immunoblot with anti-CDK4 H-22

With “endogenous cyclin D1 of MCF7 cells (from UniProt P24385 1-295)” the binding [1] was “binds”.
“streptavidin (from UniProt P22629 37-163)” was tested, and the binding [2] was “binds”, the binding [3] was “binds” and the binding [4] was “binds”.
For “neutravidin (from UniProt P02701 25-152)”, the binding [5] was “binds”.
“endogenous cyclin D3 of MCF7 cells (from UniProt P30281 1-292)” was tested, and the binding [6] was “binds”.
